# Experimental data: the supplement of paper PMC3334620
# In all, about 33,000 sequences were measured (“E-score (-0.5 to 0.5)”: median about -8e-05, highest 2% from about 0.23 on). The list shows a part of the results.
# Biological target: T1, Nrg2 (UniProt P38082)
# T1 sequence: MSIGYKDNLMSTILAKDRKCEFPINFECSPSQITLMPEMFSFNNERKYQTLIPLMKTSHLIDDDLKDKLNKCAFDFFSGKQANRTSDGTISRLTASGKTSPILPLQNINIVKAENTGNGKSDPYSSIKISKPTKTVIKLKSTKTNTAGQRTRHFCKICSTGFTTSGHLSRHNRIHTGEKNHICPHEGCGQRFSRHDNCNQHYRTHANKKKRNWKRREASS
# Test: PBM E-score (8-mer binding enrichment) (E-score (-0.5 to 0.5)); higher = stronger / more preferred TF binding
# Settings: protein concentration: 100 nM; construct: GST-full length
# How it was run: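 E-scores (a modified Wilcoxon-Mann-Whitney statistic) were assigned by the Universal PBM Analysis Suite to every ungapped eight-base word pooled with its reverse complement. The input came from universal all-10-mer Agilent arrays made double-stranded by primer extension and probed with GST-tagged yeast transcription factors at about 100-200 nM. Fluorescent anti-GST detected bound protein, and masliner normalised the scans.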
row,Sequence,PBM E-score
1,AAGGCGCC,0.1
2,TCATGTCA,0.0401
3,CCAAGTCC,-0.056
4,TAAAGCCA,0.0522
5,CTGGGATC,-0.171
6,GCCCGGAA,0.041
7,ACGTCCTG,-0.264
8,CAGAATAG,0.0458
9,ACAAGGCT,-0.256
10,CTAACATC,-0.0367
11,TACTCCGA,-0.0135
12,TACGTCGA,-0.00706
13,CCACCGCG,0.0694
14,AATCGTCC,0.0101
15,CCTGTCCA,-0.123
16,CCAGTGAG,-0.206
17,TAATCGTA,-0.0259
18,CCCAAAAA,-0.0156
19,AGAGGATC,-0.00322
20,TCCTGAGA,-0.0364
21,AAGTAATA,-0.00088
22,GTCCACAA,-0.177
23,GCACACAC,-0.0423
24,CCGCCTAC,0.0611
25,ACCTAATG,-0.262

row,Sequence,PBM E-score
1,AGTTCAAT,-0.0578
2,CCAAGAAC,0.0699
3,ACTACAAA,0.141
4,TTAGCTAA,-0.0113
5,ACCACAAG,-0.0833
6,CGGTCCGC,-0.0774
7,ACGATCCG,0.0452
8,ATTGCGTG,-0.0627
9,GGTCGAGA,0.0272
10,ATGTCGAG,-0.0763
11,CACCTACA,-0.027
12,GCAAGCTA,-0.00443
13,ATTAGATC,0.0519
14,AACTGACT,-0.167
15,GCGTACAC,-0.0949
16,ATCGGATG,0.0179
17,AACGTAAG,0.0335
18,CTTGCAGC,-0.0798
19,GATTCTGA,-0.00417
20,ATCTTTAC,0.0513
21,CAATACTG,0.03
22,CCCCCAGA,-0.484
23,AGAGAAGA,-0.173
24,ACGACGAA,0.107
25,ACTCTACT,0.0768

row,Sequence,PBM E-score
1,AAAGTCTT,-0.148
2,TTGAAAAA,0.0802
3,CGTAATTC,0.0958
4,AACTTATG,-0.0218
5,ATTGCGTC,0.237
6,CACCCAAC,-0.0412
7,CTTAACCC,-0.101
8,ACTTGCAG,-0.0514
9,CGCCAGTC,-0.131
10,ATAAGCTA,-0.0795
11,AGCCGGCC,0.0394
12,ACCTACTC,0.0619
13,AAGCTTGA,-0.0785
14,CACGGTCA,-0.081
15,AAGTCAGA,-0.0338
16,GAAATATC,0.052
17,AGTATGTC,0.103
18,GCCCAAAC,0.0141
19,CCCTTTCC,-0.117
20,ACCAACAA,0.245
21,AAAGAGAA,0.0136
22,CCTCAAGA,-0.0963
23,AGGTAACT,0.0986
24,AGCGAAAA,0.0209
25,ATGGCCAG,0.172

row,Sequence,PBM E-score
1,TCAACGAA,0.0485
2,CAATCTTA,-0.0766
3,AACGCGGT,0.0753
4,ACTTTCCC,-0.123
5,CTTGTTTA,-0.0191
6,GTATGCCA,-0.0357
7,ACCTTGCA,-0.0793
8,CCGTGATC,0.0111
9,ACCAGCGG,-0.0916
10,TCTTATAA,0.0658
11,TCGGATAA,-0.0774
12,AAAAGGGT,0.148
13,AGTCCCCA,-0.0879
14,ATCGCCGA,-0.152
15,CGGTCAGA,-0.145
16,ATTAAAGC,0.0945
17,TCACTCCA,0.0355
18,CAGCGCTC,-0.0841
19,CGCGTAAC,-0.159
20,CTTCGCGA,0.0778
21,CGTTATAA,-0.058
22,AAATGGAC,0.19
23,AGCAGTTC,-0.109
24,TCAGGTAA,-0.0616
25,AGGCCATC,-0.0922

row,Sequence,PBM E-score
1,ATCAGCCA,-0.0618
2,TACGGGGA,0.016
3,AGACTGTG,-0.103
4,CTAATGTC,0.0636
5,AGTTGTTC,0.00173
6,CAAAAAGG,-0.0881
7,ATATCCGC,-0.0377
8,GTACGGAA,0.0949
9,ATATCGGA,0.116
10,CAGCCTGG,-0.0765
11,CTCCTACC,-0.264
12,TACCCGTA,-0.0153
13,AAATCATT,-0.154
14,CTACGGTC,-0.302
15,CACAGTAC,0.0168
16,CTCCATTC,-0.0548
17,AGAATCCC,0.172
18,CTCGGGGC,-0.0297
19,CCCTTTTC,0.186
20,ATTGCTCC,-0.105
21,CAGTCCGG,-0.298
22,CACAACAC,0.107
23,TACACCTA,0.0327
24,CATAGGCG,-0.076
25,CCTTCCAA,-0.0655

# 2 consecutive records out of the list so far:
row,Sequence,PBM E-score
11,CTCCTACC,-0.264
12,TACCCGTA,-0.0153

# Taken from above.
# Entry of ATCAGCCA under PBM E-score: -0.0618
# Entry of CACAACAC under PBM E-score: 0.107
# Entry of CTAATGTC under PBM E-score: 0.0636
# Entry of AAATCATT under PBM E-score: -0.154

# Exported bar-delimited: part of the list above
row | Sequence | PBM E-score
1 | ATCAGCCA | -0.0618
2 | TACGGGGA | 0.016

# Additional records

row,Sequence,PBM E-score
1,GTATAGCA,0.078
2,GGGCAAAA,0.105
3,ACGGGCAT,-0.123
4,GCTAGAGC,-0.177
5,GCAGGGAC,0.28
6,GAACGCTA,-0.186
7,CCGGTGCC,-0.197
8,ATGCCATC,0.0991
9,AACCCGGA,-0.123
10,AGGCTGTG,-0.112
11,ACCTAGCC,-0.171
12,GTTCAGTA,0.0427
13,ACGCGGTA,-0.152
14,GCATATAC,-0.0328
15,CTCGGATC,0.0434
16,CAACTCTG,-0.136
17,AACAGACC,-0.0463
18,CGTTATCC,0.0133
19,CCTGACCG,-0.0573
20,CATTCGCC,-0.06
21,AAAGATTT,0.0643
22,GAGTTTGC,0.0418
23,CACTTAAG,0.0926
24,CTAAGCTC,-0.157
25,ACGGCCCT,-0.0277

row,Sequence,PBM E-score
1,ATGGTGCG,-0.153
2,GCCCATGA,0.00643
3,GCACGCCC,-0.0884
4,AATCATGT,0.0762
5,GGTCCTCA,-0.15
6,AGGTGACA,0.0654
7,ACATAACA,0.0414
8,AATGGCAG,0.0917
9,AGTCACCA,-0.102
10,ATATTTGA,0.0791
11,ATGCCTTA,-0.272
12,CCCGTCTA,-0.0372
13,CATTACCG,-0.149
14,CGATTAAC,0.0113
15,GAGGGGAC,0.0965
16,ACACATCA,-0.18
17,ACAGACCG,-0.00691
18,ACTGTCTC,0.0547
19,TCTGGACA,-0.0443
20,ACAGAGCG,-0.219
21,ATTGTGCG,-0.0707
22,ACTTAAGT,0.0749
23,AGCTTCGA,-0.00696
24,AGGATTCG,0.0081
25,CATGAGTA,-0.134

row,Sequence,PBM E-score
1,AATGGGCC,-0.0664
2,ATCACAGC,0.0436
3,CCCATCAC,-0.0783
4,CGAGAAGC,0.0357
5,ACCGGTCG,-0.251
6,CTGTCATA,0.0533
7,CCCTGATC,0.0782
8,ACTCCGCA,-0.0638
9,ACAGAACA,0.149
10,CCTGCTAC,0.0716
11,TAGGCGCA,0.13
12,CCATGGCA,-0.0119
13,CACAATCG,-0.0996
14,ACCCGGGA,0.207
15,GCGGAGTA,0.0162
16,CCGCTAAC,0.0957
17,GAAACAGC,-0.0901
18,AGGTTACT,-0.0749
19,CAGCGGAA,-0.152
20,CAATATCA,0.0345
21,GTCAGAAC,-0.0554
22,CCGACCCG,-0.0742
23,GACGATTA,0.0203
24,GGAGTTAC,0.0502
25,AATCACAC,0.037

row,Sequence,PBM E-score
1,GAAGACGC,-0.0204
2,CACCCCGG,-0.148
3,GCTAAATA,0.037
4,CTATCTTA,0.116
5,CAAATGTA,0.161
6,CCGGGTGC,-0.0823
7,CTCAACAG,-0.0628
8,CCCAACAC,-0.00204
9,CACTATGA,-0.0462
10,ACTATAAT,0.131
11,AGGAAATC,0.086
12,CCACAAAA,0.112
13,ACGTTGCG,0.0404
14,GCCATAGC,0.0313
15,CCTGTAAC,0.087
16,AAATCATC,0.162
17,AAAAATGT,-0.0423
18,AGACTCTG,0.0932
19,AAGAGGCA,0.0561
